# Results published in PubChem BioAssay AID540256 (National Center for Advancing Translational Sciences (NCATS), 2011).
# Hit rate of the full screen: of about 300,000 compounds, about 3,700 (1.2%) were called active. Only results without a clear call are listed here; the source files them as inconclusive. Calls come from the whole dose curve; tested in HEK293 cells.
# Assay: qHTS for Inhibitors of binding or entry into cells for Lassa Virus; note: nearly all actives have a fitted effect of over 50% in size
# Conditions: Lassa virus pseudotype entry inhibition, cell reporter; activity change, negative = inhibition: at 46.1 µM (top of the series)
# % is set by controls: 0 for no effect and ±100 for the full control effect; potency is the fitted concentration of half-maximal effect.
Compound,Potency,"activity change, negative = inhibition"
CC(C)c1ccc(OP(C)(=O)Nc2ccc(SC(F)(F)F)cc2)cc1 (centres undefined),inconclusive: 29.1 µM,
CCCCCOc1ccc(NP(C)(=O)Oc2ccc(Cl)cc2Cl)cc1 (centres undefined),inconclusive: 15.8 µM,
Cc1c([N+](=O)[O-])cc([N+](=O)[O-])c(Br)c1[N+](=O)[O-],inconclusive: 1.26 µM,
CCOC(=O)c1ccc(NP(C)(=O)Oc2ccc(F)cc2)cc1 (centres undefined),inconclusive: 14.6 µM,
CCOC(=O)c1ccc(NP(C)(=O)Oc2ccc(Cl)cc2)cc1 (centres undefined),inconclusive: 5.62 µM,
CC1CCOC(=O)C=CC=CC(=O)OC2CC3OC4C5OC5(C)C(O)CC4(COC(=O)C1O)C2(C)C31CO1 (centres undefined),inconclusive: 0.0891 µM,
CCOC(=O)c1ccc(NP(C)(=O)Oc2ccc(OC)cc2)cc1 (centres undefined),inconclusive: 0.891 µM,
Cc1cc(C)cc(OP(C)(=O)Nc2ccc(SC(F)(F)F)cc2)c1 (centres undefined),inconclusive: 0.794 µM,
O=[N+]([O-])c1ccc2c(c1)C=Nc1ccccc1O2,inconclusive: 8.91 µM,
Cc1cccc(C)c1OP(C)(N)=O (centres undefined),inconclusive: 25.1 µM,
Cc1ccc(C)c(NP(C)(=O)Oc2ccccc2)c1 (centres undefined),inconclusive: 3.98 µM,
O=[N+]([O-])c1cc([N+](=O)[O-])c(-c2cnn(-c3ccccc3)c2)c([N+](=O)[O-])c1,inconclusive: 11.2 µM,
O=[N+]([O-])c1cc([N+](=O)[O-])c(-n2nnc3ccccc32)c([N+](=O)[O-])c1,,inconclusive: 47.5%
CCCOc1ccc(NP(C)(=O)Oc2ccc(Cl)cc2)cc1 (centres undefined),inconclusive: 12.6 µM,
